Reference: patent publication US12251373B2, “Compounds and methods of treating retinal degeneration” (CASE WESTERN RESERVE UNIVERSITY, priority 2017, dated 2025)
At least one structure is not confirmed: it was looked up by name or label, or the drawing left a doubt.

Biological target: mouse P23H opsin mutant (Mus musculus, UniProt P15409, P23H)
Test: β-Gal fragment complementation assay: rescue of P23H opsin transport from ER to plasma membrane, U2OS(PLC-EA/P23H-PK) cells
Format: cell-based
From the text: U2OS(PLC-EA/P23H-PK) cells. A U2OS stable cell line was generated by DiscoveRx, Inc. (Fremont, CA, USA) for the β-Gal fragment complementation assay used in the small molecule HTS for rescue of P23H opsin transport. U2OS cells that continually express P23H-PK and PLC-EA fusion proteins were generated. Briefly, this small subunit of […] (PK fragment) was fused to the C-terminal of the mouse P23H opsin mutant, while the large EA fragment, a subunit of […], was fused with PLC, a plasma membrane anchored peptide. Both constructs were subcloned by DicoveRx, Inc. and transferred into U2OS cells by viral infections. Positive clones were selected under treatment with hygromycin and geneticin.
Briefly, U2OS(PLC-EA/P23H-PK) cells were suspended in assay medium at 3×10^5 cells mL^−1. […] Assay plates were incubated in the dark for 60-90 min, and luminescence was read from each assay plate with an Envision microplate reader (PerkinElmer) during a 0.1 s per well integration time. The mean and s.d. of readouts in column 2 of each plate were calculated as Mean0% and SD0%, whereas the average and s.d. of readouts in column 23 were calculated as Mean100% and SD100%. Equation 1: Activity scores (%)=(RLUcp−Mean0%)/(Mean100%−Mean0%)×100%, where RLUcp is the relative luminescence unit derived for cells treated with a compound. […]

Structure (SMILES): O=C1OCC(c2ccc(Cl)s2)=C1c1ccco1 [YC-028]
- activity in rescuing P23H opsin transport (in words): failed to retain activity
